Test [1] has as its target MDM2, endogenous protein in HeLa cervical cancer cell lysate (UniProt Q00987). Put plainly: co-immunoprecipitation from HeLa cell lysate with anti-NCL antibody, western blot (FIG. 1A legend).
For test [2] the target is unchanged. Kind of test: co-immunoprecipitation from HeLa cell lysate with anti-NCL antibody, western blot for MDM2.
Test [3] has the same target. Put plainly: co-immunoprecipitation from HeLa cell lysate with anti-NCL antibody, western blot (FIG. 1B legend).
For test [4], the target named is recombinant human MDM2 (purchased from R&D Systems, E3-202-050) (human) (UniProt Q00987). Put plainly: recombinant proteins, immunoprecipitation with anti-NCL antibody, western blot (FIG. 5A legend).
Test [5] has the same target. Put plainly: recombinant proteins mixed (2 ug/mL each), immunoprecipitation with anti-NCL antibody, western blot. Background: Immunoblotting shows a protein as a band on a membrane.

Chains of the proteins cited; added tags and fusions are not shown. Residues count along the entry.
UniProt Q00987: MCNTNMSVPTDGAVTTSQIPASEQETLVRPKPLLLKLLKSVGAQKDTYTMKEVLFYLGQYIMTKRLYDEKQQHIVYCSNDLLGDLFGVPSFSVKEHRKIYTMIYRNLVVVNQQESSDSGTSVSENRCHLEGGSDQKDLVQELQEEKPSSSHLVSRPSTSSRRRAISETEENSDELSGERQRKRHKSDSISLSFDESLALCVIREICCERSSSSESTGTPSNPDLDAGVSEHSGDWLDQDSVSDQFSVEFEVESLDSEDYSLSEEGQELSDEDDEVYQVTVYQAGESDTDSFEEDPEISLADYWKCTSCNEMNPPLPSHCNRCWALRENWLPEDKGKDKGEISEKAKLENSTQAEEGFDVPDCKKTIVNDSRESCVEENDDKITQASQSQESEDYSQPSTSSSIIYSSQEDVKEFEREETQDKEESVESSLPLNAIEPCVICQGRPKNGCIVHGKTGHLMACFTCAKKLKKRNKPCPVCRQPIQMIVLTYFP
UniProt P19338, residues 2-710: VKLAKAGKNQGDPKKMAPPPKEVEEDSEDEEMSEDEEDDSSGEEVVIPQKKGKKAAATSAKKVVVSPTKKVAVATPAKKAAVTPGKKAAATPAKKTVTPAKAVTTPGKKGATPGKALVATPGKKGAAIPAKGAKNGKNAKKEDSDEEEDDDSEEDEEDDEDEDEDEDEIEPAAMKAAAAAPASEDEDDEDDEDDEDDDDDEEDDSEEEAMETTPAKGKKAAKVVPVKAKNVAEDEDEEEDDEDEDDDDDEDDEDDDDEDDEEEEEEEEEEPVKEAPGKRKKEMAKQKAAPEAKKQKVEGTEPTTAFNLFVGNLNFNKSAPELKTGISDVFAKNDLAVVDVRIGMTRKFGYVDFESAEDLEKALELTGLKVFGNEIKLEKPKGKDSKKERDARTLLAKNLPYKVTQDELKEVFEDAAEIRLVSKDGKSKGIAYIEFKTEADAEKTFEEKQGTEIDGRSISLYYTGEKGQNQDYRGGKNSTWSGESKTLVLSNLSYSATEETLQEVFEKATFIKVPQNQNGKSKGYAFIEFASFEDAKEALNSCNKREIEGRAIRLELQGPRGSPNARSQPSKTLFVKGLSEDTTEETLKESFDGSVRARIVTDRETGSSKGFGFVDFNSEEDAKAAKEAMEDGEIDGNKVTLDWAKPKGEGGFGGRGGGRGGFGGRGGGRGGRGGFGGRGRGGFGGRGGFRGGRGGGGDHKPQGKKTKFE

Consider 2 substances from patent US20260256923A1, “NEW RECRUITMENT ELEMENT OF UBIQUITIN LIGASE AND USE THEREOF” (SHENZHEN LINGGENE BIOTECH CO., LTD., priority 2023, published 2026).

Results are given in words; binding and its absence hold for the method and conditions named. For some assays here: In cells and extracts the contact can be indirect. Some entries that bind do so weakly or less than the wild type.

Regarding “Nucleolin (NCL), endogenous protein in HeLa cervical cancer cell lysate (from UniProt P19338 2-710)”, the binding result in test [1], in test [2] and in test [3] was “binds” in each case.

As to “recombinant human NCL (purchased from ACROBiosystems, NUL-H5253) (from UniProt P19338 2-710)”, the binding entry in test [4] and in test [5] was “binds” in each case.
